The data set is classed as in vivo, human.

Read-outs that look alike come from different tables or passages of the source. Marks after values point to notes of the source that are not given here.

For the molecule `CC(C)(C(=O)O)c1ccc(C(O)CCCN2CCC(C(O)(c3ccccc3)c3ccccc3)CC2)cc1` (centres unmarked) [fexofenadine], the “Cl/F, geometric mean (CV%)” value is given as 69.3 ^b (33.5) l/h (fexofenadine 120 mg oral with 240 ml GFJ) and 52.8 (40.0) l/h (fexofenadine 120 mg oral with 240 ml water).

Source of the values: publication PMC4029847 (Journal of clinical pharmacology, 2013).
